Measured values: PubChem BioAssay AID1487 (National Center for Advancing Translational Sciences (NCATS), 2009)
“And” between values parts separate entries of the source, which are not always exact repeats. Identical values can stand only once. Some of the results follow. These are further read-outs of the screen, such as a control signal, another cell line or another target. No call is given for them. Most of these compounds were active or inconclusive in the main read-out, so they are no random draw. Potencies come from curve fits of mixed quality, noted in brackets.

Experiment: qHTS Assay for Modulators of Lamin A Splicing
Conditions: HeLa LMNA splicing GFP/RFP minigene ratio, 48 h
Method in brief: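 Read-out is the ratio of GFP to DsRed2 object intensity, acquired by 488 nm laser-scanning cytometry on HeLa lamin A-EGFP minigene reporter cells. Compound incubation 48 hrs at 37 °C in Opti-MEM with 2% FBS; DMSO 0.5% final.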

[1] = measured here: GFP splicing reporter channel
[2] = measured here: RFP viability control channel

SMILES	AC50 [1]	AC50 [2]
Cc1ccsc1C(=O)C1CCCN(Cc2ccccc2O)C1 (centres undefined)	0.631 µM [falling, full curve, poor fit]	–
Nc1nc2ccc(Cl)cc2c2nc(-c3ccco3)nn12	14.1 µM [falling, partial curve]	8.91 µM [falling, partial curve]
CCCCOP(=O)(c1ccc(N(C)C)cc1)C(Nc1ccccc1)c1ccccc1 (centres undefined)	6.31 µM [rising, partial curve]	14.1 µM [rising, single point]
CSc1ccccc1C(=O)C1CCCN(Cc2cccc(C)n2)C1 (centres undefined)	15.8 µM [falling, single point]	–
CCN(CC)C(=O)c1ccc(NC(=O)COc2ccc([N+](=O)[O-])cc2Cl)cc1	–	14.1 µM [rising, partial curve]
NC(N)=NOCCC(N)C(=O)O (centres undefined)	–	6.31 µM [falling, partial curve, poor fit]
Cc1ccc(-c2nn3c(C)nnc3c3ccccc23)cc1S(=O)(=O)NCCO	22.4 µM [falling, partial curve]	35.5 µM [falling, partial curve, poor fit]
CN1CCC[C@@H]1c1cccnc1	1.78 µM [falling, partial curve, poor fit]	0.00447 µM [rising, full curve, poor fit]
O=C(COc1ccccc1)N1CCN(Cc2c[nH]c3ccccc23)CC1	14.1 µM [rising, partial curve]	15.8 µM [rising, single point]
Cc1cccc(Cn2cccc(C(=O)Nc3ccc(F)cc3F)c2=O)c1	0.112 µM [rising, full curve, poor fit]	–
O=c1c2cc(N3CCOCC3)ccc2[nH]c(=S)n1Cc1ccc(Cl)cc1	–	7.08 µM [rising, partial curve]
CN1CC[C@@]2(C)c3cc(O)ccc3N(C)C12 (some centres undefined)	11.2 µM [falling, partial curve]	22.4 µM [falling, partial curve]
Cc1cc(NC(=O)COC(=O)c2c(C)nn(Cc3ccccc3Cl)c2C)no1	35.5 µM [falling, single point]	25.1 µM [falling, partial curve]
O=[N+]([O-])c1ccc2nc(CCCc3nc4ccc([N+](=O)[O-])cc4[nH]3)[nH]c2c1	0.316 µM [falling, full curve]	0.355 µM [falling, full curve]
CN1CCN(c2cc(N3CCCCCC3)c(F)cc2[N+](=O)[O-])CC1	20 µM [rising, partial curve, poor fit]	22.4 µM [rising, partial curve, poor fit]
CC(C)OC(=O)c1c(N)n(Cc2ccco2)c2nc3ccccc3nc12	–	5.62 µM [falling, single point]
CN(C)c1ccc(P(=O)(Nc2ccc([N+](=O)[O-])cc2)N2CCOCC2)c(NC(=O)c2cccs2)c1 (centres undefined)	–	0.282 µM [rising, partial curve, poor fit]
COC(=O)[C@@H]1C[C@H]1[C@@H](NP(=O)(c1ccccc1)c1ccccc1)c1ccccc1	–	11.2 µM [rising, partial curve]
C/C(=N\NC(=O)c1ccncc1)c1c(O)n(-c2ccccc2)c(=O)[nH]c1=O	20 µM [rising, partial curve, poor fit]	–
c1ccc2c(c1)[I+]c1ccccc1-2	2.51 µM [falling, full curve, poor fit]	5.62 µM [falling, partial curve]
N#Cc1cc2c(nc1SCC(=O)Nc1ccc(Cl)cc1)C1CCN2CC1	–	15.8 µM [rising, partial curve]
CN(C)C(=O)Oc1cc(OC(=O)N(C)C)cc([C@@H](O)CNC(C)(C)C)c1	1.41 µM [rising, single point]	0.0891 µM [rising, partial curve, poor fit]
O=C(c1ccc2c(c1)N(Cc1ccc(F)cc1)C(=O)c1ccccc1S2)N1CCC2(CC1)OCCO2	0.158 µM [falling, full curve, poor fit]	–
O=[N+]([O-])c1cc([As](=O)(O)O)ccc1O	–	0.355 µM [falling, full curve, poor fit]
O=S(=O)(O)c1cc(O)ccc1O	0.282 µM [falling, full curve]	0.141 µM [falling, full curve]
NC(=O)c1ncn([C@H]2O[C@@H](CO)[C@@H](O)[C@@H]2O)n1	3.16 µM [falling, single point]	3.16 µM [falling, single point]

SMILES	AC50 [1]	AC50 [2]
O=[N+]([O-])c1cc(I)c(O)c(I)c1	0.794 µM [rising, full curve, poor fit]	35.5 µM [falling, single point]
CN(C)CC/C=C1\c2ccccc2Sc2ccc(Cl)cc21	282 nM [falling, full curve, poor fit] and 2.51 nM [falling, full curve, poor fit]	8.91 µM [rising, partial curve, poor fit] and 25.1 µM [rising, partial curve]
CNc1ccc2oc(C[C@H]3O[C@@]4(CC[C@H]3C)O[C@H]([C@H](C)C(=O)c3ccc[nH]3)[C@H](C)C[C@H]4C)nc2c1C(=O)O	2.82 µM [falling, full curve]	3.16 µM [falling, full curve]
COc1ccc(C2=NCc3nnc(C)n3-c3ccc(Cl)cc32)cc1Cl	–	12.6 µM [rising, partial curve]
COc1cccc(CN2CCN(C(=O)COc3ccc4ccccc4c3)CC2)c1	–	35.5 µM [rising, single point]
Cc1ccc(-n2ncc(C(=O)N3CCN(c4ccc(Cl)cc4)CC3)c2C2CCN(C(=O)OC(C)(C)C)CC2)c(C)c1	–	35.5 µM [rising, single point]
COc1ccc2c(c[n+](C)c3c4cc5c(cc4ccc23)OCO5)c1OC	2.82 µM [falling, full curve]	3.16 µM [falling, full curve]
CCN1CC2(COC(=O)c3ccccc3N)CCC(OC)C34C5CC6C(OC)CC(O)(C5C6OC)C(O)(C(OC)C23)C14 (centres undefined)	–	0.0794 µM [falling, full curve, poor fit]
Cc1ccc(C(=O)O)cc1N=Nc1c(O)[nH]c(=O)[nH]c1=O	0.251 µM [rising, full curve, poor fit]	0.158 µM [rising, full curve, poor fit]
CCCCn1c(O)c(C=NC2CC3CCC2(C)C3(C)C)c(=O)[nH]c1=O (centres undefined)	–	20 µM [rising, partial curve, poor fit]
CCOC(=O)c1c(-n2c(C)cc(/C=C3\C(=O)NC(=O)N(C)C3=O)c2C)sc2c1CCCC2	–	12.6 µM [falling, partial curve]
CCC(=O)c1c(O)n(C2CCCCCC2)c(=O)[nH]c1=O	–	35.5 µM [rising, single point]
CCN(CC)c1ncnc2c1ncn2[C@@H]1O[C@H](COP(=O)(O)OP(=O)(O)C(Br)(Br)P(=O)(O)O)[C@@H](O)[C@H]1O	0.112 µM [falling, full curve]	–
COc1ccc(CN2CCN(c3ccccc3F)CC2)c(OC)c1	–	8.91 µM [rising, partial curve]
CC1CCCC(C)N1c1nnc(NC(=O)Cn2c(=O)oc3ccccc32)s1 (centres undefined)	–	5.01 µM [rising, partial curve, poor fit]
C[C@@]12CC[C@H]3[C@@H](CC[C@@H]4C[C@H]5S[C@H]5C[C@]43C)[C@H]1CC[C@H]2O	4.47 µM [rising, partial curve]	1.12 µM [rising, full curve, poor fit]
CCCCCCCCCC(=O)O[C@H]1CC[C@H]2[C@@H]3CCC4=CC(=O)CC[C@]4(C)[C@H]3CC[C@]12C	20 µM [rising, single point]	31.6 µM [rising, single point]
CCC(C)N1C(=O)/C(=C/c2ccc3c(c2)CCN3CCCCl)C(=O)NC1=S (centres undefined)	12.6 µM [falling, partial curve]	10 µM [falling, partial curve]
C[N+]1(C)CCN(c2ccccc2)CC1	0.00501 µM [falling, full curve, poor fit]	–
NC(=O)COc1c(F)cc(SCCNS(=O)(=O)c2ccccc2)cc1F	3.16 µM [rising, partial curve]	–
Nc1nc2[nH]c(=O)cnc2c(=O)[nH]1	–	0.00447 µM [falling, full curve, poor fit]
CC1CCN(CC(=O)c2ccc3c(c2)OCCO3)CC1	–	0.0794 µM [rising, full curve, poor fit]
CC(C(=O)c1ccccc1)N1C(=O)c2ccccc2C1=O (centres undefined)	–	0.631 µM [falling, single point]
CCCCCC1CC(CC(=O)NC(=S)Nc2ccc([N+](=O)[O-])cc2)C(=O)O1 (centres undefined)	–	31.6 µM [rising, single point]
Cc1ccc(-c2cc(-c3ccc(C)cc3)[n+](C)o2)cc1	15.8 µM [rising, partial curve]	7.08 µM [rising, partial curve]
O=c1c2ccccc2nc(CSc2ncnc3nc[nH]c23)n1-c1ccccc1	12.6 µM [falling, single point]	–
